In PubChem BioAssay AID1671190 (National Center for Advancing Translational Sciences (NCATS), 2021):
The campaign covered roughly 580,000 compounds. About 6,100 (1.1%) were called active. The shares of active, inactive and inconclusive entries below differ from those in the screen. The call rests on the fitted dose curve; in most records, active means well fitted inhibition curve with a large enough effect; inconclusive means small, poorly fitted or top-dose-only effect, or another doubt; inactive means no such curve, though single readings can be large or run the other way. A potency beside an inconclusive call is a rough fit, not a confirmed value.
On the % scale 0 is the no-effect control and ±100 the full control effect; potency means the concentration at half of the fitted maximal effect.

Protein sequences, listed by entry. Tags and fused reporters are not part of them. Lines headed by an entry give the natural chain unless they say otherwise; changes in a name come on top.
UniProt P18054: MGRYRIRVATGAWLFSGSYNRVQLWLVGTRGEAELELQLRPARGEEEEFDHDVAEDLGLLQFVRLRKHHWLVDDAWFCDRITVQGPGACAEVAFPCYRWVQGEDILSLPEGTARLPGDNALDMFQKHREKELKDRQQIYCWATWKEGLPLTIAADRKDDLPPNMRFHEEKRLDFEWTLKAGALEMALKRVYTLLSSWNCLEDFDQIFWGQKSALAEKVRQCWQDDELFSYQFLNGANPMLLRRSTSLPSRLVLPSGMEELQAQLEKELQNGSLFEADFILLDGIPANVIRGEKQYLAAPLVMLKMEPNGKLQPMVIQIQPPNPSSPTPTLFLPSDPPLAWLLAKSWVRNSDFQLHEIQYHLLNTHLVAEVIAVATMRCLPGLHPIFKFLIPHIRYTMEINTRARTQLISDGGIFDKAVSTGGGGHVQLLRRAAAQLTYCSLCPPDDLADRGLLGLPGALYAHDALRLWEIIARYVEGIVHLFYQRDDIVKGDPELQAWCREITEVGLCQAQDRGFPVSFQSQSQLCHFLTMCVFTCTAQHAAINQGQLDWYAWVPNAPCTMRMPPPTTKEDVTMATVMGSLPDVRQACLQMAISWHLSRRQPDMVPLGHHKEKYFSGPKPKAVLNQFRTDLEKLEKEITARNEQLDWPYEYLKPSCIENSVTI

These molecules were tested against Polyunsaturated fatty acid lipoxygenase ALOX12 (Homo sapiens) (UniProt P18054) (assay: Primary qHTS assay for inhibitors of human arachidonate 12S-lipoxygenase (ALOX12): Round 2). Conditions: purified 12hLO, xylenol orange hydroperoxide absorbance; activity change, negative = inhibition: at 108 µM (top of the series) unless noted.
How it was run: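 Purified human 12hLO at 150 nM in 25 mM Hepes, 0.01% Triton X-100, pH 7.0, preincubated 15 min at room temperature with compound. Reaction started with 40 uM arachidonic acid, 30 min at room temperature. Hydroperoxide measured by Fe-xylenol orange, 573/405 nm absorbance ratio.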
`COc1cc(NC(=O)c2ccccc2)c(OC)cc1Cl` was tested, and the “activity change, negative = inhibition” value was inactive: 0%.
With `Cc1ccccc1C(=O)N/N=C/c1ccc(OCC(=O)N2CCCCC2)cc1` the Potency was inconclusive: 31.6 µM [inhibitor, single point].
In the case of `CCCCC[C@H](CC(=O)NO)C(=O)N[C@H](C(=O)N1CCC[C@H]1CO)C(C)C`, the Potency is reported as inconclusive: 12.6 µM [inhibitor, full curve, poor fit].
In the case of `N#CC1=C(N)n2c(s/c(=C\c3cccs3)c2=O)=C(C#N)C1c1cccs1` (centres undefined), the Potency is reported as inconclusive: 39.8 µM [inhibitor, partial curve].
For `COc1cc(O)c2c(=O)c(-c3ccc(O[C@@H]4O[C@H](CO)[C@@H](O)[C@H](O)[C@H]4O)cc3)coc2c1`, the Potency was inconclusive: 100 µM [inhibitor, single point].
For `CC1=C(C(N)=O)C(c2ccccc2F)NC(=O)N1` (centres undefined), the Potency was inconclusive: 56.2 µM [inhibitor, partial curve, poor fit].
With `COc1cccc(N2C(=O)NC(=NC3CCCCC3)C23CCN(C(=O)c2ccccc2)CC3)c1` the Potency was inconclusive: 112 µM [inhibitor, partial curve, poor fit].
`O=C(CSc1ccc2ccccc2c1)OCC(=O)c1ccc2c(c1)OCCO2` was tested, and the Potency was inconclusive: 50.1 µM [inhibitor, partial curve, poor fit].
For `COc1cccc(-n2nnnc2SCC(=O)Nc2nc3c(s2)CCCC3)c1`, the “activity change, negative = inhibition” value was inactive: -1.35%.
With `Cc1cc(S(=O)(=O)Nc2ccc3[nH]c(=O)sc3c2)ccc1F` the Potency was inconclusive: 79.4 µM [inhibitor, partial curve, poor fit].
For `Cc1ccc([C@@H]2C[C@H]3CN(Cc4cccc(Cl)c4)C(=O)[C@]34CCCN24)o1`, the “activity change, negative = inhibition” value was inactive: 5.81%.
`O=C(Cn1cc(S(=O)(=O)Cc2ccccc2Cl)c2ccccc21)Nc1cccc(C(F)(F)F)c1` was tested, and the Potency was inconclusive: 112 µM [inhibitor, partial curve, poor fit].
For `COc1cccc(CNS(=O)(=O)c2ccccc2Br)c1OC`, the “activity change, negative = inhibition” value was inactive: -5.25%.
With `COc1ccc(CNc2nc3ccccc3n2Cc2ccc(Cl)cc2)cc1OC` the Potency was inconclusive: 44.7 µM [inhibitor, partial curve, poor fit].
For `CC(Sc1ncnc2ccccc12)C(=O)Nc1cccc(Cl)c1Cl` (centres undefined), the “activity change, negative = inhibition” value was inactive: -3.15%.
`CC(C)Oc1cccc(C(=O)Nc2ccc3oc(-c4ccccc4)nc3c2)c1` was tested, and the Potency was inconclusive: 56.2 µM [inhibitor, partial curve, poor fit].
`CCN(CC)C1CCN(C(=O)CCc2nnc(CCc3ccccc3)o2)C1` (centres undefined) was tested, and the Potency was inconclusive: 4.47 µM [inhibitor, full curve, poor fit].
In the case of `CCOc1ccc(C(NC(=O)c2cc(OC)c(OC)c(OC)c2)c2cc(Cl)c3cccnc3c2O)cc1` (centres undefined), the Potency is reported as inconclusive: 22.4 µM [inhibitor, partial curve].
In the case of `COc1ccc2[nH]cc(CCNc3ncncc3-c3ccc4c(c3)OCO4)c2c1`, the Potency is reported as inconclusive: 1.78 µM [inhibitor, full curve, poor fit].
With `COc1ccc(NC(=O)NCCCN2CCN(c3cc(C)ccc3C)CC2)cc1` the “activity change, negative = inhibition” value was inactive: 15.5%.
With `CCc1ccc(NC(=O)CSc2nc3ccccc3c(=O)n2CCC(=O)NC2CCCCC2)cc1` the “activity change, negative = inhibition” value was inactive: -9.8%.
`CC(=O)N/C(N)=N/c1nc2cc([N+](=O)[O-])ccc2o1` was tested, and the “activity change, negative = inhibition” value was inactive: 186%.
`CCC(C)c1ccccc1OCCCN(C)Cc1ccccc1` (centres undefined) was tested, and the Potency was inconclusive: 0.708 µM [inhibitor, full curve, poor fit].
In the case of `COc1ccc(CN2CC(CNc3ccccc3)C3(C2)CN(c2ccccc2)C3)cc1O` (centres undefined), the Potency is reported as inconclusive: 100 µM [inhibitor, partial curve].
For `CC(C)(C)OC(=O)C[C@@H]1C/C=C\C[C@H](CC(=O)N[C@H](CO)Cc2ccccc2)C(=O)N[C@H](Cc2ccccc2)COC1=O`, the Potency was inconclusive: 141 µM [inhibitor, partial curve, poor fit].
With `CC(C)(C)c1ccc(OCCC(=O)Nc2cccc(S(=O)(=O)NC3=NCCCCC3)c2)cc1` the “activity change, negative = inhibition” value was inactive: 9.38%.
In the case of `COc1cccc(CNCc2cccc3[nH]ccc23)c1`, the Potency is reported as inconclusive: 1.12 µM [inhibitor, full curve].
With `COC(=O)c1cc(C)nc(Nc2nc(C(N)Cc3ccc(Cl)cc3)cs2)n1` (centres undefined) the Potency was inconclusive: 79.4 µM [inhibitor, single point].
In the case of `Cc1ccc(C)c(S(=O)(=O)N2CCCC2CNC(=O)C(=O)NC2CCCCCC2)c1` (centres undefined), the “activity change, negative = inhibition” value is reported as inactive: 13.2%.
In the case of `COc1ccc(NS(=O)(=O)c2cc(NC(=O)CCNC(C)=O)ccc2N2CCCCC2)cc1`, the Potency is reported as inconclusive: 112 µM [inhibitor, single point].
`Cc1cc(C)c(NC(=O)CSc2ncnc3ccccc23)c(Cl)c1` was tested, and the Potency was inconclusive: 141 µM [inhibitor, partial curve, poor fit].
With `CCCCC(=O)NC(c1ccc(OC)cc1)c1ccc2cccnc2c1O` (centres undefined) the Potency was inconclusive: 31.6 µM [inhibitor, partial curve].
`Cc1ccc2c(CN(Cc3cccs3)C(C)C)cc(=O)oc2c1` was tested, and the Potency was inconclusive: 44.7 µM [inhibitor, partial curve, poor fit].
With `N=C(N)c1cccc(OCc2cccnc2)c1` the Potency was active: 7.94 µM.
For `CCNC(=O)CC1C(=O)N(c2ccccc2)C(=O)N1Cc1ccc(OC)cc1` (centres undefined), the Potency was inconclusive: 44.7 µM [inhibitor, partial curve, poor fit].
With `CCC(=O)Nc1ccc(-c2csc(NCc3ccco3)n2)cc1` the Potency was inconclusive: 15.8 µM [inhibitor, full curve, poor fit].
With `COc1cc(NS(=O)(=O)c2cc(-c3n[nH]c(=O)c4c3CCCC4)ccc2C)cc(OC)c1` the Potency was inconclusive: 0.631 µM [inhibitor, partial curve, poor fit].
With `Cc1cc(C(=O)N2CCCC(c3nn[nH]n3)C2)nn1C` (centres undefined) the Potency was inconclusive: 8.91 µM [inhibitor, full curve].
With `Cc1nn(CC(=O)c2cc(C)n(C(C)C)c2C)c(=O)c(C#N)c1C` the “activity change, negative = inhibition” value was inactive: -8.59%.
With `CCCn1c(=N)c(S(=O)(=O)c2ccccc2)cc2c(=O)n3ccccc3nc21` the Potency was inconclusive: 89.1 µM [inhibitor, single point].
`CCc1ccc(-c2nc(CN3CCC(C(=O)N4CCN(c5ccccc5)CC4)CC3)c(C)o2)cc1` was tested, and the Potency was inconclusive: 39.8 µM [inhibitor, partial curve, poor fit].
`COc1ccc2c(c1)[C@H]1[C@H](CO2)[C@H](c2ccccc2)[C@]2(C)C(=O)Nc3ccccc3C(=O)N12` was tested, and the “activity change, negative = inhibition” value was inactive: -13.7%.
In the case of `CCCCNC(=O)Cc1ccc(C)cc1`, the Potency is reported as inconclusive: 0.398 µM [inhibitor, full curve, poor fit].
With `CC(=O)C1=C(C)NC(SCc2cccc3ccccc23)=C(C#N)C1c1ccco1` (centres undefined) the Potency was inconclusive: 35.5 µM [inhibitor, partial curve].
In the case of `Cc1ccc2c(c1)C(=O)N1c3cc(C)c(C)cc3NC(=O)C1C(=O)N2` (centres undefined), the Potency is reported as inconclusive: 89.1 µM [inhibitor, single point].
For `Cc1ccccc1C(=O)NC(=S)Nc1ncccn1`, the Potency was inconclusive: 17.8 µM [inhibitor, full curve].
For `COc1ccc(-c2cc(N3CCCN(C(=O)c4cccc(Cl)c4)CC3)n[nH]2)cc1`, the “activity change, negative = inhibition” value was inactive: 44.7%.
In the case of `CCc1noc(-c2cccn3c(CNC(=O)Cc4ccccc4C)nnc23)n1`, the “activity change, negative = inhibition” value is reported as inactive: 64.7%.
With `CN(C(=O)c1cccc(C(=O)N(C)c2ccccc2)c1)c1ccccc1` the Potency was inconclusive: 44.7 µM [inhibitor, single point].
With `C[C@@H]1CCC[C@@]2(O[C@H](CCO)C[C@@H](O)[C@@H]2O)O1` the Potency was inconclusive: 126 µM [inhibitor, single point].
`Cc1ccc(O)c([C@H](CCN(C(C)C)C(C)C)c2ccccc2)c1` was tested, and the Potency was “inactive”.
With `CCC(CO)Oc1cc(NCc2ccccc2)c2ncn(C(C)C)c2c1` (centres undefined) the Potency was inconclusive: 50.1 µM [inhibitor, partial curve, poor fit].
For `CCc1c(-c2ccc(F)cc2)ncn1Cc1cccc(-c2ccccc2)c1`, the Potency was inconclusive: 20 µM [inhibitor, partial curve].
With `Cc1ccc(S(=O)(=O)N2CCCCC2C(=O)N2CCN(C)CC2)cc1` (centres undefined) the Potency was inconclusive: 25.1 µM [inhibitor, partial curve, poor fit].
`O=[N+]([O-])c1cc2c(c3cccnc13)COCO2` was tested, and the “activity change, negative = inhibition” value was inactive: -16.8%.
`O=C1CC(c2ccccc2)=NO1` was tested, and the Potency was inconclusive: 79.4 µM [inhibitor, partial curve, poor fit].
`O=c1c2ccccc2n(Cc2cccc(Cl)c2)c(=O)n1Cc1ccccc1` was tested, and the Potency was inconclusive: 126 µM [inhibitor, partial curve, poor fit].
For `Cc1cccc(N2CCN(C(=O)c3cc4ccc5cccnc5c4[nH]3)CC2C)c1` (centres undefined), the Potency was inconclusive: 39.8 µM [inhibitor, partial curve, poor fit].
For `COc1ccc(C(=O)NCC(c2ccco2)N2CCCCC2)cc1S(=O)(=O)Nc1ccc(C)cc1` (centres undefined), the Potency was inconclusive: 50.1 µM [inhibitor, partial curve, poor fit].
In the case of `COc1ccc(-c2ccc(-c3cc(=O)oc4cc(OC)c(OC)c(OC)c34)cc2)cc1`, the Potency is reported as inconclusive: 112 µM [inhibitor, single point].
For `COc1ccccc1CCNC(=O)CCSc1nc(Cl)nc2nc[nH]c12`, the Potency was inconclusive: 50.1 µM [inhibitor, partial curve, poor fit].
With `COCCCNc1nc(NCc2ccc(C)cc2)c2cnn(C)c2n1` the Potency was inconclusive: 28.2 µM [inhibitor, partial curve].
With `CCCCCCn1ccc(=N)cc1` the “activity change, negative = inhibition” value was inactive: 21.8%.
In the case of `CC(C)NC(=O)c1sc(=S)n2c1[nH]c(=O)c1ccc(C(=O)NCCc3ccc(Cl)cc3)cc12`, the Potency is reported as inconclusive: 100 µM [inhibitor, single point].
